Assay results: patent publication US20140287471A1, “VARIANT CBH I POLYPEPTIDES WITH REDUCED PRODUCT INHIBITION” (BP CORPORATION NORTN AMERICA INC., priority 2011, published 2014)
Positions count from the first letter of the chain named.

B1: 268— Phe (protein, UniProt P62694 18-513, looked up, variant R268F)
Exoglucanase 1: QSACTLQSETHPPLTWQKCSSGGTCTQQTGSVVIDANWRWTHATNSSTNCYDGNTWSSTLCPDNETCAKNCCLDGAAYASTYGVTTSGNSLSIGFVTQSAQKNVGARLYLMASDTTYQEFTLLGNEFSFDVDVSQLPCGLNGALYFVSMDADGGVSKYPTNTAGAKYGTGYCDSQCPRDLKFINGQANVEGWEPSSNNANTGIGGHGSCCSEMDIWEANSISEALTPHPCTTVGQEICEGDGCGGTYSDNFYGGTCDPDGCDWNPYRLGNTSFYGPGSSFTLDTTKKLTVVTQFETSGAINRYYVQNGVTFQQPNAELGSYSGNELNDDYCTAEEAEFGGSSFSDKGGLTQFKKATSGGMVLVMSLWDDYYANMLWLDSTYPTNETSSTPGAVRGSCSTSSGVPAQVESQSPNAKVTFSNIKFGPIGSTGNPSGGNPPGGNRGTTTTRRPATTTGSSPGPTQSHYGQCGGIGYSGPTVCASGTTCQVLNPYYSQCL
B2: 268— Trp (protein, UniProt P62694 18-513, looked up, variant R268W)
Exoglucanase 1: B1 Exoglucanase 1 with F251W
B3: 268— Tyr (protein, UniProt P62694 18-513, looked up, variant R268Y)
Exoglucanase 1: B1 Exoglucanase 1 with F251Y
B4: 268— Asp (protein, UniProt P62694 18-513, looked up, variant R268D)
Exoglucanase 1: B1 Exoglucanase 1 with F251D
B5: 268— Glu (protein, UniProt P62694 18-513, looked up, variant R268E)
Exoglucanase 1: B1 Exoglucanase 1 with F251E
B6: 268— His (protein, UniProt P62694 18-513, looked up, variant R268H)
Exoglucanase 1: B1 Exoglucanase 1 with F251H
B7: 268— Asn (protein, UniProt P62694 18-513, looked up, variant R268N)
Exoglucanase 1: B1 Exoglucanase 1 with F251N
B8: 268— Ser (protein, UniProt P62694 18-513, looked up, variant R268S)
Exoglucanase 1: B1 Exoglucanase 1 with F251S
B9: 268— Thr (protein, UniProt P62694 18-513, looked up, variant R268T)
Exoglucanase 1: B1 Exoglucanase 1 with F251T
B10: 268— Cys (protein, UniProt P62694 18-513, looked up, variant R268C)
Exoglucanase 1: B1 Exoglucanase 1 with F251C
B11: 268_+411A Ala (protein, UniProt P62694 18-513, looked up, variant R268A R411A)
Exoglucanase 1: B1 Exoglucanase 1 with F251A, R394A
B12: 268_+411A Ile (protein, UniProt P62694 18-513, looked up, variant R268I R411A)
Exoglucanase 1: B1 Exoglucanase 1 with F251I, R394A
B13: 268_+411A Val (protein, UniProt P62694 18-513, looked up, variant R268V R411A)
Exoglucanase 1: B1 Exoglucanase 1 with F251V, R394A
B14: 268_+411A Trp (protein, UniProt P62694 18-513, looked up, variant R268W R411A)
Exoglucanase 1: B1 Exoglucanase 1 with F251W, R394A
B15: 268_+411A Arg (protein, UniProt P62694 18-513, looked up, variant R411A)
Exoglucanase 1: B1 Exoglucanase 1 with F251R, R394A
B16: 268_+411A Gln (protein, UniProt P62694 18-513, looked up, variant R268Q R411A)
Exoglucanase 1: B1 Exoglucanase 1 with F251Q, R394A
B17: 268_+411A Pro (protein, UniProt P62694 18-513, looked up, variant R268P R411A)
Exoglucanase 1: B1 Exoglucanase 1 with F251P, R394A
B18: 268A+411— Ala (protein, UniProt P62694 18-513, looked up, variant R268A R411A)
Exoglucanase 1: B1 Exoglucanase 1 with F251A, R394A
B19: 268A+411— Ile (protein, UniProt P62694 18-513, looked up, variant R268A R411I)
Exoglucanase 1: B1 Exoglucanase 1 with F251A, R394I
B20: 268A+411— Leu (protein, UniProt P62694 18-513, looked up, variant R268A R411L)
Exoglucanase 1: B1 Exoglucanase 1 with F251A, R394L
B21: 268A+411— Val (protein, UniProt P62694 18-513, looked up, variant R268A R411V)
Exoglucanase 1: B1 Exoglucanase 1 with F251A, R394V
B22: 268A+411— Trp (protein, UniProt P62694 18-513, looked up, variant R268A R411W)
Exoglucanase 1: B1 Exoglucanase 1 with F251A, R394W
B23: 268A+411— Asp (protein, UniProt P62694 18-513, looked up, variant R268A R411D)
Exoglucanase 1: B1 Exoglucanase 1 with F251A, R394D
B24: 268A+411— Glu (protein, UniProt P62694 18-513, looked up, variant R268A R411E)
Exoglucanase 1: B1 Exoglucanase 1 with F251A, R394E
B25: 268A+411— Cys (protein, UniProt P62694 18-513, looked up, variant R268A R411C)
Exoglucanase 1: B1 Exoglucanase 1 with F251A, R394C
B26: 268A+411— Gly (protein, UniProt P62694 18-513, looked up, variant R268A R411G)
Exoglucanase 1: B1 Exoglucanase 1 with F251A, R394G
B27: 268A+411— Met (protein, UniProt P62694 18-513, looked up, variant R268A R411M)
Exoglucanase 1: B1 Exoglucanase 1 with F251A, R394M
B28: 411— Tyr (protein, UniProt P62694 18-513, looked up, variant R411Y)
Exoglucanase 1: B1 Exoglucanase 1 with F251R, R394Y
B29: 411— Asp (protein, UniProt P62694 18-513, looked up, variant R411D)
Exoglucanase 1: B1 Exoglucanase 1 with F251R, R394D
B30: 411— Glu (protein, UniProt P62694 18-513, looked up, variant R411E)
Exoglucanase 1: B1 Exoglucanase 1 with F251R, R394E
B31: 411— Ser (protein, UniProt P62694 18-513, looked up, variant R411S)
Exoglucanase 1: B1 Exoglucanase 1 with F251R, R394S
B32: 411— Cys (protein, UniProt P62694 18-513, looked up, variant R411C)
Exoglucanase 1: B1 Exoglucanase 1 with F251R, R394C
B33: 268— Ala (protein, UniProt P62694 18-513, looked up, variant R268A)
Exoglucanase 1: B1 Exoglucanase 1 with F251A

Test: CBH I protein quantification by RP-HPLC
Conditions: CBH I variant protein level in sample
Description: CBH I protein concentrations in supernatants were quantified using RP-HPLC. The system used was an Agilent 1100 series model, equipped with quaternary pump (connected to reservoirs A and B, where reservoir A contained water with 0.1% trifluoroacetic acid and reservoir B contained acetonitrile with 0.1% trifluoroacetic acid), a diode array detector (monitored at 225 nm and 280 nm), and a fluorescence detector (monitored at ex/em 280/340 nm). An Agilent Zorbax 300SB-C3 (5 μM, 4.6×150 mm) was used to separate samples using a 20 minute method (30-50% B over 10 minutes; 100% B for 5 minutes; 30% B for 5 min; at 60° C. at a flow rate of 1 mL/min). CBH I was identified by a retention time at 7.8-8.2 minutes and quantitated by area. Concentrations were determined by reference to a standard curve generated with a commercial CBH I (E-CBH I from Megazymes).

First: B1
Second: B2
The “RPLC Quantification” value of the first is 2.8-fold lower: 2.5 µg/mL for the first, 7.0 µg/mL for the second.

B3 and B4 are within 1.5-fold of each other in “RPLC Quantification” value: 9.8 µg/mL for the first, 7.8 µg/mL for the second.

First: B5
Second: B6
The “RPLC Quantification” value of the first is 2.8-fold lower: 6.3 µg/mL for the first, 17.5 µg/mL for the second.

First: B7
Second: B8
The “RPLC Quantification” value of the first is 17-fold lower: 0.5 µg/mL for the first, 8.3 µg/mL for the second.

B9 and B10 are within 1.5-fold of each other in “RPLC Quantification” value: 5.5 µg/mL for the first, 6.7 µg/mL for the second.

B11 and B12 are within 1.5-fold of each other in “RPLC Quantification” value: 14.4 µg/mL for the first, 10.3 µg/mL for the second.

B13 and B14 are within 1.5-fold of each other in “RPLC Quantification” value: 10.6 µg/mL for the first, 11.8 µg/mL for the second.

First: B15
Second: B16
The “RPLC Quantification” value of the first is 7.8-fold higher: 7.0 µg/mL for the first, 0.9 µg/mL for the second.

First: B17
Second: B18
The “RPLC Quantification” value of the first is 1.5-fold lower: 11.2 µg/mL for the first, 17.0 µg/mL for the second.

Going from B19 to B20, the “RPLC Quantification” value falls from 2.6 µg/mL to 1.6 µg/mL (1.6-fold).

Compared with B21, B22 is 2.6-fold lower in “RPLC Quantification” value: 6.6 µg/mL for the first, 2.5 µg/mL for the second.

B23 and B24 are within 1.5-fold of each other in “RPLC Quantification” value: 5.4 µg/mL for the first, 5.3 µg/mL for the second.

Compared with B25, B26 is 1.8-fold lower in “RPLC Quantification” value: 13.7 µg/mL for the first, 7.7 µg/mL for the second.

B27 and B28 are within 1.5-fold of each other in “RPLC Quantification” value: 11.5 µg/mL for the first, 13.4 µg/mL for the second.

First: B29
Second: B30
The “RPLC Quantification” value of the first is 2.3-fold lower: 2.6 µg/mL for the first, 6.1 µg/mL for the second.

First: B31
Second: B32
The “RPLC Quantification” value of the first is 1.7-fold lower: 10.6 µg/mL for the first, 18.4 µg/mL for the second.

In the case of B33, the “RPLC Quantification” value is reported as 16.9 µg/mL.
